According to PMC4475061:

Target: T1, GST-CHMP2A (human) (UniProt O43633)
T1 sequence: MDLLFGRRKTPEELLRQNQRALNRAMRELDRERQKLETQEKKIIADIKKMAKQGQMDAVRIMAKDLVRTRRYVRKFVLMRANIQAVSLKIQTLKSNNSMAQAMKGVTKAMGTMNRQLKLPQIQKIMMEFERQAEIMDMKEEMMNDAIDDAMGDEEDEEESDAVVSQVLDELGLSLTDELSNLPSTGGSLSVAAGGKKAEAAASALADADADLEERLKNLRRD
Experiment: pull-down; 293T cells co-transfected with pCAGGS/GST fusions and HA- or YFP-tagged proteins; glutathione-sepharose 3 hr at 4°C; 150 mM NaCl, Triton X-100; Western blot

## YFP-IST1 WT (human)
  binding: no binding

Results are given in words; binding and its absence hold for the method and conditions named. In cells and extracts the contact can be indirect. Tags and fused reporters may be left off the sequences shown.
